{"sequences": {"note": "Chains of the proteins cited; added tags and fusions are not shown. Residues count along the entry.", "UniProt P0DTC7, residues 16-121": "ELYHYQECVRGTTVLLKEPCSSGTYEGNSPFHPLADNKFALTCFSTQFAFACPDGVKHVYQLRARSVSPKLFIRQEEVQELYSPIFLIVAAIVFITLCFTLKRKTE"}, "source": "paper PMC9135752", "target": "SARS-CoV-2 N'V5-ORF7a (SARS-CoV-2) (UniProt P0DTC7)", "assay": "co-IP", "note": "Results are given in words; binding and its absence hold for the method and conditions named. In cells and extracts the contact can be indirect. Binding calls can cover weak binding; strength is not graded here.", "data": [{"substance": "SERINC5-HA (pBJ5-hSERINC5-HA) (from UniProt Q86VE9-4)", "values": [{"measurement": "binding", "result": "binds"}]}]}
